These are yes or no findings as the source states them, for the method shown. In cells and extracts the contact can be indirect. These calls come from enrichment with a bait or labelling near it, and not all partners need be listed.
biological target: GFP-HIF1α (wild type) (human (cDNA from SW480 cells)) (UniProt Q16665); test: affinity purification with mass spectrometry; GFP-HIF1α co-expressed with Flag-tagged WT TRIM1, ΔRING TRIM1 or pVec in SW480 cells for 18 h; IP with GFP-specific antibody, SDS-PAGE, in-gel trypsin digestion, LC-MS/MS; spectral counts compared between samples

Sequences of proteins named here, by UniProt entry; tags and fusion partners are left off. Residues count along the entry.
UniProt Q16665: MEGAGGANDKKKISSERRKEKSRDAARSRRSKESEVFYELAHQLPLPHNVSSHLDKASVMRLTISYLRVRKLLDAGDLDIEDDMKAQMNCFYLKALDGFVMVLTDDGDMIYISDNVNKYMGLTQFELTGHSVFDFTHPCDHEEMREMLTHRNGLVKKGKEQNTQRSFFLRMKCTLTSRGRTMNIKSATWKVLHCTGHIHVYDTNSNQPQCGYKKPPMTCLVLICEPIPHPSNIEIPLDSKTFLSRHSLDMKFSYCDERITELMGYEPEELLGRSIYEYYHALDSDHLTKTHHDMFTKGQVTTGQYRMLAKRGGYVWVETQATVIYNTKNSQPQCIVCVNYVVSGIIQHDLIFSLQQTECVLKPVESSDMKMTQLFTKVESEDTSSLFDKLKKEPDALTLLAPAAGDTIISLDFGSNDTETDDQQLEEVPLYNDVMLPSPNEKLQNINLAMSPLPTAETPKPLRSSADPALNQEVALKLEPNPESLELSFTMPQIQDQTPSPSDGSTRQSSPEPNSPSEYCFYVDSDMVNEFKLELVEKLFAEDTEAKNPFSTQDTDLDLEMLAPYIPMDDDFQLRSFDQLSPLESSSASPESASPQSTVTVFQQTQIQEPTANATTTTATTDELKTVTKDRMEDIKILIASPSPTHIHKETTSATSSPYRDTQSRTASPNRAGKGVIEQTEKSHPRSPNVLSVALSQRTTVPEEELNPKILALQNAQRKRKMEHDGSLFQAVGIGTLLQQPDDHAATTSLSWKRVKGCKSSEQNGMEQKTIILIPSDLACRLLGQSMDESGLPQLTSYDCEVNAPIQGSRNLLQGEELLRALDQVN
UniProt Q13838: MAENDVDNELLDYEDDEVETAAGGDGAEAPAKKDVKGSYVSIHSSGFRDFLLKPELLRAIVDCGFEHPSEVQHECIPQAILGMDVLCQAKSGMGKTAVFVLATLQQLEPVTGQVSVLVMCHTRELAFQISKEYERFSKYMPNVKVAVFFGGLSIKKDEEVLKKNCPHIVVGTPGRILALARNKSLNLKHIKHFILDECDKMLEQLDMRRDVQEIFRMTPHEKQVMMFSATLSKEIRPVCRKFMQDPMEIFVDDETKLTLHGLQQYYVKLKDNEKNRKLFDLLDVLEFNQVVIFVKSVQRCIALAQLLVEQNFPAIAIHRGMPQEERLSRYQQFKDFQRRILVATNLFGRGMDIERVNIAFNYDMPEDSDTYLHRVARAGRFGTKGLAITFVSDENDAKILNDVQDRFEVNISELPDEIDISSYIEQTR
UniProt Q92973: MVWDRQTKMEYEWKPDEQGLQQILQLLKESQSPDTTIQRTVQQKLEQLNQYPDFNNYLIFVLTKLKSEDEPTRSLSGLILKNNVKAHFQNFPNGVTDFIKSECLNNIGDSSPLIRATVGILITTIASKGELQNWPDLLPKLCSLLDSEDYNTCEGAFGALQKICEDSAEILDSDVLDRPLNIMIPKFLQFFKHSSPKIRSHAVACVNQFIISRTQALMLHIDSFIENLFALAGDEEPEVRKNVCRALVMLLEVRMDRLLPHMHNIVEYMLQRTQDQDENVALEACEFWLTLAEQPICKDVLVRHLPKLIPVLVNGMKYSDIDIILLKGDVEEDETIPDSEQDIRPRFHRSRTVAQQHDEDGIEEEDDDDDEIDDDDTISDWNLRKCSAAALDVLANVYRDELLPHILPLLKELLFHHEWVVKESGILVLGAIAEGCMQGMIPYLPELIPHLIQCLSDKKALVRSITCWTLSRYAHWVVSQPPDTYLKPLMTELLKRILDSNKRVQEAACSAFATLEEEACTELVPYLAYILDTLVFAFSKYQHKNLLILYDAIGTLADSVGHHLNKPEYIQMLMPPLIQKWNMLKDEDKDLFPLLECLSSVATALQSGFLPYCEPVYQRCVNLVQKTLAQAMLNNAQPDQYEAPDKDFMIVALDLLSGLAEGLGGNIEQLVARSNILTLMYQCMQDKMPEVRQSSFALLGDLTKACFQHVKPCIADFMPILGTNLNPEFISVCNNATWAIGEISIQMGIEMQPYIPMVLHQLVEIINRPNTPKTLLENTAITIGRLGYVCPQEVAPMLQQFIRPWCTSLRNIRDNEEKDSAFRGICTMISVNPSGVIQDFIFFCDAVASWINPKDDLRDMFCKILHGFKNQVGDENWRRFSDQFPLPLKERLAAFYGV
UniProt P49792: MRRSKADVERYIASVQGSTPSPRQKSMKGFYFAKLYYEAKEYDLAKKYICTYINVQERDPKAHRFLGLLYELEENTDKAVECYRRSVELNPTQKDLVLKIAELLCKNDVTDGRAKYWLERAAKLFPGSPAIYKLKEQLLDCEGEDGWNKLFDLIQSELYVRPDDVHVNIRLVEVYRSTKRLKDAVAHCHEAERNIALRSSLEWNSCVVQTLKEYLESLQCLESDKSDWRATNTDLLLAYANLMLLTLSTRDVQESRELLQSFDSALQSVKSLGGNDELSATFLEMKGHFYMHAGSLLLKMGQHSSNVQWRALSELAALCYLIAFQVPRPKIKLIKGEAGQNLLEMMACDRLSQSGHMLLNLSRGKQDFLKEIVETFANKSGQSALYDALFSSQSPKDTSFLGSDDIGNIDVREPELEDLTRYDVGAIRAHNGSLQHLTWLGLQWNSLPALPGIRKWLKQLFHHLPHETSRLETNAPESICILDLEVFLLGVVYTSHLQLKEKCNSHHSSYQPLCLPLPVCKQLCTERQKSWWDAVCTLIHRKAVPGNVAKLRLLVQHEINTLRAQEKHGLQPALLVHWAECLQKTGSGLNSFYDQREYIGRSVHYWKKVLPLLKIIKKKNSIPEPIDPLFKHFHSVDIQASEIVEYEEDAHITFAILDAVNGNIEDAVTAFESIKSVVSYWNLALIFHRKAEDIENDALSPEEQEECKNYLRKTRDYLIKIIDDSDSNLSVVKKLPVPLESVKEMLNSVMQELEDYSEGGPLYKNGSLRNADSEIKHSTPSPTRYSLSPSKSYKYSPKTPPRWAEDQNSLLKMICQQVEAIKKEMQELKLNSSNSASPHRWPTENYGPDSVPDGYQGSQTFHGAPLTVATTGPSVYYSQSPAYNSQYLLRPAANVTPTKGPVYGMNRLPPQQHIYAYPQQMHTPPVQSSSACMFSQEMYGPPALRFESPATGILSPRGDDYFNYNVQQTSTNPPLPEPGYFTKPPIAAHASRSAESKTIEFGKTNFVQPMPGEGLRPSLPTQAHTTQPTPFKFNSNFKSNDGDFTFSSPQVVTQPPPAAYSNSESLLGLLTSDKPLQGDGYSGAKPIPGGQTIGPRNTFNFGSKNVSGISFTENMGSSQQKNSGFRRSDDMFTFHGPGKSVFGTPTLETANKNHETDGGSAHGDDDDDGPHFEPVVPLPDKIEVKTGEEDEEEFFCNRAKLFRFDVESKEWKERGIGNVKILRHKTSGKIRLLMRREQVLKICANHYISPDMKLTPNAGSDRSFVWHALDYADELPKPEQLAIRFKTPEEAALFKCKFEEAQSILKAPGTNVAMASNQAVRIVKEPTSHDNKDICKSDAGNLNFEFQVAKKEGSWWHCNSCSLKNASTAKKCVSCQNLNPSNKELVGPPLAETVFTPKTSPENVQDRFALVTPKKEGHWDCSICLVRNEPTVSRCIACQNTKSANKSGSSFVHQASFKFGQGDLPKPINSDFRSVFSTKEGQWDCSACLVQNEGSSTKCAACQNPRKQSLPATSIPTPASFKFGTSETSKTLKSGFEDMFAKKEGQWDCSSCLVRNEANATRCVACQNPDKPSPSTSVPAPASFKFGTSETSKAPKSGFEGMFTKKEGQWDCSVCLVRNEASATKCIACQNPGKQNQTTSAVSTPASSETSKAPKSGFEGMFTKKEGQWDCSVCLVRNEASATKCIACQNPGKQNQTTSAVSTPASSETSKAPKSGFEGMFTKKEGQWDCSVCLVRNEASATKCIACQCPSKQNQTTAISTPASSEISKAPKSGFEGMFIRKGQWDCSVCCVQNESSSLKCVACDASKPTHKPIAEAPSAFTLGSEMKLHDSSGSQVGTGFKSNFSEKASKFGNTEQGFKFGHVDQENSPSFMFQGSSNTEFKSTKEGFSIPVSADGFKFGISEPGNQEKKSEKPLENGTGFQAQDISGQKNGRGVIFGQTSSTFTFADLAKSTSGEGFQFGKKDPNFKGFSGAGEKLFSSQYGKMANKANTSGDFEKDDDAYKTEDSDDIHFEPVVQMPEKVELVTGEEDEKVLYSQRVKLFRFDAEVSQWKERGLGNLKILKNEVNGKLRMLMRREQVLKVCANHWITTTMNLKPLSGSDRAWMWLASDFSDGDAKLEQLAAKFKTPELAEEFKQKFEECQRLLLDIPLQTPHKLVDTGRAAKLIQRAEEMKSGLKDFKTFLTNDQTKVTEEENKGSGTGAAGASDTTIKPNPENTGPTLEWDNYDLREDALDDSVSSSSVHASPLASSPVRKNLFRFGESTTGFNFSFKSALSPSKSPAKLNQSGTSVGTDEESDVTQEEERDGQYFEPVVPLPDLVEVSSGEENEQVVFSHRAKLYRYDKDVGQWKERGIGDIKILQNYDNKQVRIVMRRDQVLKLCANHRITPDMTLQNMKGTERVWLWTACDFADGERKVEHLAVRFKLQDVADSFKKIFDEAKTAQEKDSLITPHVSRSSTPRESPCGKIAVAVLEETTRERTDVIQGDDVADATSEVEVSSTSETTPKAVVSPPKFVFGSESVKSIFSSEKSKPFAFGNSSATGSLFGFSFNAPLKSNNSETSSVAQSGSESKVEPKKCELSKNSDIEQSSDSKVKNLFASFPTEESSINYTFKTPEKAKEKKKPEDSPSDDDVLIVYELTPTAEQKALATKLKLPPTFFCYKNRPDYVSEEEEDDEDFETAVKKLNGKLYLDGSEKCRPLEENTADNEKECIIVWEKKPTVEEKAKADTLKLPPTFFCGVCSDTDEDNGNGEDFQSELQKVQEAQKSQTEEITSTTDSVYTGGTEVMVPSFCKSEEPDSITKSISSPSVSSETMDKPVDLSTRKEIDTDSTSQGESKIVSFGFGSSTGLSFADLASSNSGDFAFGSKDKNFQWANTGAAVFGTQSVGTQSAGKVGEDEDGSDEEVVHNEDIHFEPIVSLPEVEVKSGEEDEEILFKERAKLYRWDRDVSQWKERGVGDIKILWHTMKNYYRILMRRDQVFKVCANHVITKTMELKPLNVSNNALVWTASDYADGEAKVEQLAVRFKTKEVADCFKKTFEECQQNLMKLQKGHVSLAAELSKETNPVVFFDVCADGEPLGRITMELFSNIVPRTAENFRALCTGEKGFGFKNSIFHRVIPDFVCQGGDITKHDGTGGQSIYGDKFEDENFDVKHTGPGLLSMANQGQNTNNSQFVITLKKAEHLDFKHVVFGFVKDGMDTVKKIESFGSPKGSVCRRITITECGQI
UniProt P52948, residues 1-880: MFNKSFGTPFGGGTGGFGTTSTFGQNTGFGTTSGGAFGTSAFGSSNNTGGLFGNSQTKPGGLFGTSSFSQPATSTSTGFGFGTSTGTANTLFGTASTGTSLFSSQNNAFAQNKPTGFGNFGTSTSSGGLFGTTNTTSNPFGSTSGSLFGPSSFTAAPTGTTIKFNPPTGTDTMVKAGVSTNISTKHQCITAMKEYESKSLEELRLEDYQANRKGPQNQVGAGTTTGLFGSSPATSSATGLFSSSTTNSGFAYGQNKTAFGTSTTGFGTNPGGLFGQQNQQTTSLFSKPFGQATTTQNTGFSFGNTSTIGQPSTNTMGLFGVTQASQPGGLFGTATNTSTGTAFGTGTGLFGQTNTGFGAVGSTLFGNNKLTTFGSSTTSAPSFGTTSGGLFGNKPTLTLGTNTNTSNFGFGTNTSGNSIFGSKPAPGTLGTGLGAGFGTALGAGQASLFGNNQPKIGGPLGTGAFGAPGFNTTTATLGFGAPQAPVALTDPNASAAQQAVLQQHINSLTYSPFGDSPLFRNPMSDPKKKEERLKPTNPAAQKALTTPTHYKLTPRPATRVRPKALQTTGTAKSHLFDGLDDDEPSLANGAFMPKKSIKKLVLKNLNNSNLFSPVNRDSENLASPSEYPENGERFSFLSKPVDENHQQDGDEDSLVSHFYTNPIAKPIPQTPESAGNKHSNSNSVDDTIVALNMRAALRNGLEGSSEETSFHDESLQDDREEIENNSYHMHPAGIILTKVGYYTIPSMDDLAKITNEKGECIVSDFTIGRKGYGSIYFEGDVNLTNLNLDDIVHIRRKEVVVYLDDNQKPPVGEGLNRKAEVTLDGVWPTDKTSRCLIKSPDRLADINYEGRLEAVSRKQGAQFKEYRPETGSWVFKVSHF

| binding | Molecule |
| --- | --- |
| binds | NUP153 (from UniProt P49790 1-1475) |
| binds | EEF1A2 (from UniProt Q05639 1-463) |
| binds | DDX39B (from UniProt Q13838 1-428) |
| binds | TNPO1 (from UniProt Q92973 1-898) |
| binds | RANBP2 (from UniProt P49792 1-3224) |
| binds | NUP98 (from UniProt P52948 1-880) |

biological target: GFP-HIF1α (wild type) (human (cDNA from SW480 cells)) (UniProt Q16665); test: as above; remark: another data set of the same source

| binding | Molecule |
| --- | --- |
| binds | RAB15 (protein, UniProt P59190 1-212) MAKQYDVLFRLLLIGDSGVGKTCLLCRFTDNEFHSSHISTIGVDFKMKTIEVDGIKVRIQIWDTAGQERYQTITKQYYRRAQGIFLVYDISSERSYQHIMKWVSDVDEYAPEGVQKILIGNKADEEQKRQVGREQGQQLAKEYGMDFYETSACTNLNIKESFTRLTELVLQAHRKELEGLRMRASNELALAELEEEEGKPEGPANSSKTCWC |
| binds | VPS4A (protein, UniProt Q9UN37 1-437) MTTSTLQKAIDLVTKATEEDKAKNYEEALRLYQHAVEYFLHAIKYEAHSDKAKESIRAKCVQYLDRAEKLKDYLRSKEKHGKKPVKENQSEGKGSDSDSEGDNPEKKKLQEQLMGAVVMEKPNIRWNDVAGLEGAKEALKEAVILPIKFPHLFTGKRTPWRGILLFGPPGTGKSYLAKAVATEANNSTFFSVSSSDLMSKWLGESEKLVKNLFELARQHKPSIIFIDEVDSLCGSRNENESEAARRIKTEFLVQMQGVGNNNDGTLVLGATNIPWVLDSAIRRRFEKRIYIPLPEEAARAQMFRLHLGSTPHNLTDANIHELARKTEGYSGADISIIVRDSLMQPVRKVQSATHFKKVCGPSRTNPSMMIDDLLTPCSPGDPGAMEMTWMDVPGDKLLEPVVCMSDMLRSLATTRPTVNADDLLKVKKFSEDFGQES |

Source: article PMC11106307
